Measurements taken from the supplement of paper PMC10849652.
The other results are listed elsewhere or left out.

Amino acid sequences for entries named in this document (tags omitted). A change or cut given only in a name is not applied to a line headed by its entry.
UniProt P78537: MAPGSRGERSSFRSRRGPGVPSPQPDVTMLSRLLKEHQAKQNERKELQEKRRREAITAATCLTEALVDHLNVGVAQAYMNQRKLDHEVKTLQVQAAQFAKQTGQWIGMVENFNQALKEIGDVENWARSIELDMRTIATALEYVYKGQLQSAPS
UniProt P38398, whole entry, looked up: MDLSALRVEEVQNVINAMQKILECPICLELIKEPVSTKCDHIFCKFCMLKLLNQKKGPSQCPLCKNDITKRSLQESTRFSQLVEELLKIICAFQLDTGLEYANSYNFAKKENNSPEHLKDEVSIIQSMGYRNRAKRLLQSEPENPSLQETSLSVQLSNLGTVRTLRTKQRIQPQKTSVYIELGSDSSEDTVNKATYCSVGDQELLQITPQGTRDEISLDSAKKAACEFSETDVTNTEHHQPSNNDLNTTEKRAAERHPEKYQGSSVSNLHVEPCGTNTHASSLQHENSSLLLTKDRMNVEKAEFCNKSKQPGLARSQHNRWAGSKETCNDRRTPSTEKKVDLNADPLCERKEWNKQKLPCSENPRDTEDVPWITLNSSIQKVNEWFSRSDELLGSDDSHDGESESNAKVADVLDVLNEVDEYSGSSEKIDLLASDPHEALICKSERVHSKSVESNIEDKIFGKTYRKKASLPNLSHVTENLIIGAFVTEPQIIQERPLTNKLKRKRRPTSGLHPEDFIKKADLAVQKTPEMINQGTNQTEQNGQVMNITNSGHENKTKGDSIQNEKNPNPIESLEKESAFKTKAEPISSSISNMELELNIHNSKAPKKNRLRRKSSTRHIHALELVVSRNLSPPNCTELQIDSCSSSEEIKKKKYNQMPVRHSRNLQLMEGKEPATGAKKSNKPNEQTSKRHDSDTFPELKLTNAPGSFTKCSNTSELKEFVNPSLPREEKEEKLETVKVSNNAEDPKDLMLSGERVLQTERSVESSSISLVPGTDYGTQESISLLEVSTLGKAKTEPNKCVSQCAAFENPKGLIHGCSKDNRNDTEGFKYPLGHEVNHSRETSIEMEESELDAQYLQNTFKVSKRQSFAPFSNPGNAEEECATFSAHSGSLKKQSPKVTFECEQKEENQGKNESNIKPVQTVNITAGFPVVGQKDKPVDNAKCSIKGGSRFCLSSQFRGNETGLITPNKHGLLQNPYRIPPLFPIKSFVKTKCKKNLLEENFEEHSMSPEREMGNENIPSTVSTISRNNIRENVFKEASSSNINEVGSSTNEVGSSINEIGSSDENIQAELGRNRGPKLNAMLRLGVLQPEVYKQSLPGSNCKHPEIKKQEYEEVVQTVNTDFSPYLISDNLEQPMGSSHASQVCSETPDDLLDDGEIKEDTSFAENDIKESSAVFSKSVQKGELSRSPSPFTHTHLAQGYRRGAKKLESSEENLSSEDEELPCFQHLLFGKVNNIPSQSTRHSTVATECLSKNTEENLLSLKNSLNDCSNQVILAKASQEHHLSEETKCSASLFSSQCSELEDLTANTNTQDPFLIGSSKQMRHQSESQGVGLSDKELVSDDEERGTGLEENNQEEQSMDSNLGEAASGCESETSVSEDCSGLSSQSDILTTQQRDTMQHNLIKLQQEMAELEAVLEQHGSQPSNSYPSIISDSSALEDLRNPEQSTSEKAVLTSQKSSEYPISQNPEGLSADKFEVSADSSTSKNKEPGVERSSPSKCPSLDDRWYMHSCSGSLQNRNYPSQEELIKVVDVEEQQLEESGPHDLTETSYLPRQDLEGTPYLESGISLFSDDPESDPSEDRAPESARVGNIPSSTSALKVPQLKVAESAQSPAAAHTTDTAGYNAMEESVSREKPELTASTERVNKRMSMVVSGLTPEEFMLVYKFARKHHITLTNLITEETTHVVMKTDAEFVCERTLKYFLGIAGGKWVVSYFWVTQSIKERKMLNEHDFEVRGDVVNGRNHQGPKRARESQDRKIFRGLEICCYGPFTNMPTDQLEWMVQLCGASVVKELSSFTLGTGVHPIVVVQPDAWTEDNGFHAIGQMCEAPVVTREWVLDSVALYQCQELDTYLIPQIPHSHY
UniProt Q9UHQ4: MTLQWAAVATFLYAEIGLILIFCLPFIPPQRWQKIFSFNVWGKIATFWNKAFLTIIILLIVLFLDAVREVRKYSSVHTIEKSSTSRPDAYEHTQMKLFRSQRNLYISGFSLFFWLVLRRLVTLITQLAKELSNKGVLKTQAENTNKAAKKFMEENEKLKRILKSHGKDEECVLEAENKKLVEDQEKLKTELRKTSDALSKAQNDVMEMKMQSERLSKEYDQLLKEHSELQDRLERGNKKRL
UniProt P55957: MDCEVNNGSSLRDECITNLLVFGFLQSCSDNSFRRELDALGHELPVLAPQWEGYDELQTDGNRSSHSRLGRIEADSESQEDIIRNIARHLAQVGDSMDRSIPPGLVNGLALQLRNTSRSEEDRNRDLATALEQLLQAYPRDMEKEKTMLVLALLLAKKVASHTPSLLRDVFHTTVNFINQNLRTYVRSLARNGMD
UniProt O43521, whole entry, looked up: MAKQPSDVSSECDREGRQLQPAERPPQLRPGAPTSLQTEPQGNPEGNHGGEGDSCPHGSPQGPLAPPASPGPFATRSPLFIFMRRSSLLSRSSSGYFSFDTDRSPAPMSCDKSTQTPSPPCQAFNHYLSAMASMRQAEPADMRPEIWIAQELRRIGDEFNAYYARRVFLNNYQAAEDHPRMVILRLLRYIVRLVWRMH
UniProt O95999: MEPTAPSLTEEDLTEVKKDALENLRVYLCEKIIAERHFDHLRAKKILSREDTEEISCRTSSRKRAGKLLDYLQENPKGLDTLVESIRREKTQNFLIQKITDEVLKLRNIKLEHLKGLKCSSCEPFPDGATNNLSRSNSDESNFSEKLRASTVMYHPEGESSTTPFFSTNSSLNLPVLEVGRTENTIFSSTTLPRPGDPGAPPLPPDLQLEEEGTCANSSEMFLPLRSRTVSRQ
UniProt Q8WY36: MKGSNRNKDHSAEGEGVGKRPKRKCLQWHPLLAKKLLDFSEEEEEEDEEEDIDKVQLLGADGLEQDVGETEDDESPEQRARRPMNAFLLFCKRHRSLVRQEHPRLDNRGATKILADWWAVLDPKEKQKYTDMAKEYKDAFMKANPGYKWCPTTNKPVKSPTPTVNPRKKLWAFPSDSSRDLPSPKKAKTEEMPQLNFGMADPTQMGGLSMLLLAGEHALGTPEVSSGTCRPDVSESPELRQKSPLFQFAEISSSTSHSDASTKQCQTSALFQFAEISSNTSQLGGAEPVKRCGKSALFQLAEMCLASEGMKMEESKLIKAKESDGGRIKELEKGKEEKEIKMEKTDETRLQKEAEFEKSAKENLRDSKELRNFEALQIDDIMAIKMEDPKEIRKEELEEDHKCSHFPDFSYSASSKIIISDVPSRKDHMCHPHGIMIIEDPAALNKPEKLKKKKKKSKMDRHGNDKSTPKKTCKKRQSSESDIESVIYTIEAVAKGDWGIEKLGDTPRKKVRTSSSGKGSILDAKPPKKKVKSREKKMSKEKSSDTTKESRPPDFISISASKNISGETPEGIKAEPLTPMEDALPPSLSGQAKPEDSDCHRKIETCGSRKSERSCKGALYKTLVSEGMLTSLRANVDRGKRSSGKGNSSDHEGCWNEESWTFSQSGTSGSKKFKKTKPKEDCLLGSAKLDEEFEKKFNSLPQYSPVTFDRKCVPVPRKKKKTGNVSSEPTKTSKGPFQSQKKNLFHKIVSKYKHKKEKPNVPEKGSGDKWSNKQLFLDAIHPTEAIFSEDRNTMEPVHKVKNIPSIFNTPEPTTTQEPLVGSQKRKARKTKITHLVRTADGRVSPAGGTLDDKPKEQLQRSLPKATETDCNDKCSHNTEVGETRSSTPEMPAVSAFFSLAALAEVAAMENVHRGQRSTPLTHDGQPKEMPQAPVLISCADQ
UniProt Q9UIF9: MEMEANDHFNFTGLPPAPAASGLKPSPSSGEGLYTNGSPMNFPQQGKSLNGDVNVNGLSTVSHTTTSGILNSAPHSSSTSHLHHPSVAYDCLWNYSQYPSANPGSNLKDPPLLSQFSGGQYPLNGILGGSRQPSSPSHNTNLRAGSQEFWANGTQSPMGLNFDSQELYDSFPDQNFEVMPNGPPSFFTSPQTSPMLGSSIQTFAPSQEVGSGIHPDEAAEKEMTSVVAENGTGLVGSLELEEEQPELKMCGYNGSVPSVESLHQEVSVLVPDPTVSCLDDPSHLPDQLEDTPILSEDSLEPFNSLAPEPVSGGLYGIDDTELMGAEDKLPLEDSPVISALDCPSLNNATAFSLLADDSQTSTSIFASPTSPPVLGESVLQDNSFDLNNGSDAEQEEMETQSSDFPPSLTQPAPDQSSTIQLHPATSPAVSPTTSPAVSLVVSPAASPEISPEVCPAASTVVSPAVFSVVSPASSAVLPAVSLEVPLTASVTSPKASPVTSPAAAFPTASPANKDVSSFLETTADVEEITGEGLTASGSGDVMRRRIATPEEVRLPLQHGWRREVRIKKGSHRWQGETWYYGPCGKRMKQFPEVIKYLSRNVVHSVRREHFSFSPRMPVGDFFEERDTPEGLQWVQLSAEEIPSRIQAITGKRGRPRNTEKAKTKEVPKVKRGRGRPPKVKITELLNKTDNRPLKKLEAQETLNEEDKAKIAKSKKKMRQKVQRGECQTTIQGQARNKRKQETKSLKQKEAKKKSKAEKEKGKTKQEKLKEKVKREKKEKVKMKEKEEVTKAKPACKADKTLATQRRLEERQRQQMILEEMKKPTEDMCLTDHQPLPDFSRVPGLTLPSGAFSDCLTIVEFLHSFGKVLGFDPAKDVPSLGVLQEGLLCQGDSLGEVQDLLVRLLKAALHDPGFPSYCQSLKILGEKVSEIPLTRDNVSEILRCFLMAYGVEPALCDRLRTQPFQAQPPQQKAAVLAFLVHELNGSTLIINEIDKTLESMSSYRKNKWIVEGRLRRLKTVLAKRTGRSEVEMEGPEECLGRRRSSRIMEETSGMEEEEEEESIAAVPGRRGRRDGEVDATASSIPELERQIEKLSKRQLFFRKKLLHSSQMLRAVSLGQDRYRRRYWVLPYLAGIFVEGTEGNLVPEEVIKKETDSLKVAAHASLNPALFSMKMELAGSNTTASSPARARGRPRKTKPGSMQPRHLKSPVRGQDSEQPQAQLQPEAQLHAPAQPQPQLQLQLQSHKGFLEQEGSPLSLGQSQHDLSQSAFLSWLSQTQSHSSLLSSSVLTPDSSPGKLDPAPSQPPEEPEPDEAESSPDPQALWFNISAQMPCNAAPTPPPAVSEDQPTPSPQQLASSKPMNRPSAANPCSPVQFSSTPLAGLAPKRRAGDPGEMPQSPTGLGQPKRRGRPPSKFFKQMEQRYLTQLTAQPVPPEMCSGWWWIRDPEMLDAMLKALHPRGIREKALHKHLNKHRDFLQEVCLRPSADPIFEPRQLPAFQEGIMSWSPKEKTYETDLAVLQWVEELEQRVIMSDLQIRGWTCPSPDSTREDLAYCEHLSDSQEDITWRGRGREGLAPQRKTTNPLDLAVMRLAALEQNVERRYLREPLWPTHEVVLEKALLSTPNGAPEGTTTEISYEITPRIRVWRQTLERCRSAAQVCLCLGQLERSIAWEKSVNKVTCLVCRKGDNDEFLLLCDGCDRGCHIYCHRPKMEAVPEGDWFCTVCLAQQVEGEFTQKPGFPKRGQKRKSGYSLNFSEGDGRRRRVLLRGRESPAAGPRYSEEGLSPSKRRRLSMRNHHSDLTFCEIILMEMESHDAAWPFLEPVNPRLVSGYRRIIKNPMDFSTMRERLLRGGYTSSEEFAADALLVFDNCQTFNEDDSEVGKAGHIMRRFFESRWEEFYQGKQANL
UniProt Q4VC05, whole entry, looked up: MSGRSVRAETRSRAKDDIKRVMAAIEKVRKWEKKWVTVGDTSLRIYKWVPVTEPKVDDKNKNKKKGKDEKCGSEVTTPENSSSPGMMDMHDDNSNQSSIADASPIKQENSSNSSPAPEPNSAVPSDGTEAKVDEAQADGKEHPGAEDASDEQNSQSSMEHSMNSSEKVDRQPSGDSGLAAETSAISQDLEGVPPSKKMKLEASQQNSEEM
UniProt Q9HCU9: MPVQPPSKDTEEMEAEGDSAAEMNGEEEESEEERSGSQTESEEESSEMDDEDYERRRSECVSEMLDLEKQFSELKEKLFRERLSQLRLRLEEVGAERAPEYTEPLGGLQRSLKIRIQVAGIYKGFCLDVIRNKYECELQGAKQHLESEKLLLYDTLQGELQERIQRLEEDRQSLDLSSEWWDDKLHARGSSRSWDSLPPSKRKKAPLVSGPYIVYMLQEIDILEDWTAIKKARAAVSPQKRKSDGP
UniProt Q9BXY8: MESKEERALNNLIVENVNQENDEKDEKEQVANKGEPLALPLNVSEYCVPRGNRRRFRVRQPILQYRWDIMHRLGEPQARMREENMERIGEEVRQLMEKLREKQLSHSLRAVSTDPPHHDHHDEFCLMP

Assays:
Assay in all cases: log2 fold change, soluble protein after heating vs DMSO (PISA); higher = thermal stabilisation; K562 lysate, 10 uM; active = over 0.2 and 3.5 SD of the protein, either way, in both replicates (recomputed)
[1] = compound: C1=CC=C(C=C1)[C@H](COC2=CC3=C(C=C2)NC(=O)N3)NC(=O)C4=CC=CN(C4=O)CC5=CC(=C(C=C5)F)F
Outline: (§1)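 A 30 min treatment with 10 μM compound was applied to crude K562 extract at 1 mg/mL protein in PBS pH 7.4 with 1 mM MgCl2. Heating for 3 min spanned 48°C-58°C, after which aliquots were pooled, adjusted to 0.5% NP-40 at 4°C and spun at 21,000xg for 90 min. TMTpro 16plex LC-MS/MS of the supernatant, with channel sums equalised, gave values recorded as log-two fold change in thermal stability against solvent controls, from duplicates.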

[2] = compound: CC1=C(SC2=C1C(=N[C@H](C3=NN=C(N32)C)CC(=O)N)C4=CC=C(C=C4)Cl)C
Outline: as §1

[3] = compound: CC1=C2C(=CC=C1)N=C(N(C2=O)C3=CC=CC=C3C)CN4C=NC5=C(N=CN=C54)N
Outline: as §1

[4] = compound: Cc1sc2c(c1C)C(c1ccc(Cl)cc1)=N[C@@H](CC(=O)OC(C)(C)C)c1nnc(C)n1-2
Outline: as §1

[5] = compound: c1ccc([C@@H]2C[C@H]2NC2CCNCC2)cc1
Outline: as §1

[6] = compound: C1COCCN1CCN2C3=CC=CC=C3N=C2NC(=O)C4=CC(=CC=C4)[N+](=O)[O-] [IRAK-1-4 Inhibitor I]
Outline: as §1

Target | log2 fold change [1] | log2 fold change [2] | log2 fold change [3] | log2 fold change [4] | log2 fold change [5] | log2 fold change [6]
BRF1 (UniProt Q92994) | inactive: 0.059 | inactive: -0.049 | inactive: 0.086 | inactive: 0.062 | inactive: 0.005 | 
BLOC1S1 (UniProt P78537) | inactive: 0.009 | inactive: 0 | inactive: -0.014 | inactive: -0.002 | inactive: 0.039 | 
BRCA1 isoform 7 (UniProt P38398) | inactive: -0.052 | inactive: 0.052 | inactive: 0.023 | inactive: 0.009 | inactive: 0.03 | 
BRD2 isoform 2 (UniProt P25440) | inactive: 0.024 | active: 1.06 | inactive: 0.081 | active: 0.644 | inactive: 0.071 | 
BTBD10 isoform 2 (UniProt Q9BSF8) | inactive: -0.002 | inactive: -0.022 |  | inactive: -0.017 |  | 
BACH1 (UniProt O14867) | inactive: 0.029 | inactive: 0.017 | inactive: -0.007 | inactive: -0.044 | inactive: -0.011 | 
BCAP29 isoform 2 (UniProt Q9UHQ4) | inactive: 0.042 | inactive: -0.066 | inactive: 0 | inactive: -0.005 | inactive: -0.033 | 
BID isoform 2 (UniProt P55957) | inactive: 0.026 | inactive: -0.076 | inactive: 0.004 | inactive: -0.075 | inactive: -0.028 | 
BRAT1 (UniProt Q6PJG6) | inactive: -0.043 | inactive: -0.005 | inactive: 0.027 | inactive: 0.005 | inactive: 0.003 | 
BANP (UniProt Q8N9N5) | inactive: 0.027 | inactive: 0.026 | inactive: 0.139 | inactive: 0.04 | inactive: -0.05 | 
BCL2L11 (UniProt O43521) | inactive: 0.105 | inactive: -0.337 | inactive: -0.116 |  | inactive: 0.022 | 
BCL7B (UniProt Q9BQE9) | inactive: 0.166 | inactive: 0.279 | inactive: -0.064 | inactive: 0.122 | inactive: 0.188 | 
BCL9 (UniProt O00512) | inactive: 0.13 | inactive: 0.123 | inactive: -0.265 |  | inactive: 0.125 | 
BIRC2 (UniProt Q13490) | inactive: -0.035 | inactive: 0.021 | inactive: 0.005 | inactive: 0.019 | inactive: -0.028 | 
B4GALT1 (UniProt P15291) | inactive: -0.005 | inactive: 0.03 | inactive: -0.102 |  | inactive: 0.006 | 
BCL10 (UniProt O95999) | inactive: 0.049 | inactive: 0.014 | inactive: 0.004 | inactive: -0.03 | inactive: -0.012 | 
BTBD1 (UniProt Q9H0C5) | inactive: -0.064 | inactive: -0.054 | inactive: 0.128 |  | inactive: -0.013 | 
BCCIP (UniProt Q9P287) | inactive: -0.001 | inactive: -0.008 | inactive: -0.026 | inactive: 0.008 | inactive: 0.042 | 
BORCS5 (UniProt Q969J3) | inactive: -0.12 | inactive: 0 | inactive: -0.015 | inactive: -0.005 | inactive: -0.011 | 
BET1L (UniProt Q9NYM9) | inactive: 0.061 | inactive: -0.007 | inactive: -0.108 | inactive: -0.01 | inactive: 0.053 | 
BCCIP isoform 2 (UniProt Q9P287) | inactive: 0.005 | inactive: 0.012 | inactive: -0.028 | inactive: -0.008 | inactive: 0.055 | 
BORCS6 (UniProt Q96GS4) | inactive: -0.112 | inactive: 0.08 | inactive: 0.076 | inactive: -0.01 | inactive: 0.007 | 
BCL7C isoform 2 (UniProt Q8WUZ0) | inactive: 0.017 | inactive: 0.016 | inactive: -0.066 | inactive: 0.059 | inactive: 0.013 | 

Target | log2 fold change [1] | log2 fold change [2] | log2 fold change [3] | log2 fold change [4] | log2 fold change [5] | log2 fold change [6]
BCL2L2 isoform 2 (UniProt Q92843) | inactive: 0.031 | inactive: -0.008 | inactive: -0.01 | inactive: 0.028 | inactive: -0.037 | 
BTAF1 (UniProt O14981) | inactive: 0.013 | inactive: 0 | inactive: -0.005 | inactive: 0.04 | inactive: -0.02 | 
BRCA2 (UniProt P51587) | inactive: -0.248 | inactive: -0.051 | inactive: -0.039 | inactive: -0.146 | inactive: -0.086 | 
BIN3 (UniProt Q9NQY0) | inactive: -0.017 | inactive: -0.101 |  | inactive: 0.084 | inactive: 0 | 
BMS1 (UniProt Q14692) | inactive: 0.047 | inactive: -0.036 | inactive: 0.027 | inactive: 0.013 | inactive: -0.029 | 
BEND3 (UniProt Q5T5X7) |  |  | inactive: 0.074 | inactive: 0.02 | inactive: -0.043 | 
BEX4 (UniProt Q9NWD9) |  |  |  | inactive: -0.085 |  | 
BRMS1L (UniProt Q5PSV4) |  |  | inactive: -0.001 |  |  | 
BPIFA2 (UniProt Q96DR5) | inactive: 0.189 | inactive: -0.176 |  |  | inactive: -0.024 | 
BCAS1 isoform 2 (UniProt O75363) | inactive: 0.109 | inactive: -0.038 |  |  | inactive: -0.072 | 
BAHCC1 (UniProt Q9P281) |  |  | inactive: 0.011 | inactive: -0.187 | active: -0.696 | 
BRWD1 (UniProt Q9NSI6) |  |  |  | inactive: 0.097 |  | 
BCAP31, A0A2R8Y5M6 |  |  | inactive: -0.346 |  | inactive: -0.007 | 
BMT2 (UniProt Q1RMZ1) |  |  |  |  | inactive: 0.123 | 
B4GALT4 (UniProt O60513) |  |  |  | inactive: -0.066 | inactive: 0.016 | 
BTBD2 (UniProt Q9BX70) |  |  |  |  | inactive: -0.068 | 
BAHD1 (UniProt Q8TBE0) | inactive: 0.271 | inactive: 0.065 |  | inactive: -0.068 | inactive: 0.099 | 
BBX (UniProt Q8WY36) |  |  |  | inactive: 0.045 |  | 
BAZ2A (UniProt Q9UIF9) |  |  |  |  | inactive: -0.012 | 
BNIP3 (UniProt Q12983) | inactive: 0.034 | inactive: -0.053 |  | inactive: -0.023 | inactive: -0.074 | 
BCL7A (UniProt Q4VC05) | inactive: -0.018 | inactive: 0.209 |  | inactive: -0.119 | inactive: 0.217 | 
BIN1 (UniProt O00499) |  |  | inactive: -0.066 |  | inactive: -0.192 | 
BRIP1 (UniProt Q9BX63) |  |  | inactive: -0.042 | inactive: 0.075 | inactive: -0.025 | 

An excerpt of these results, tab-delimited:
Target	log2 fold change [1]	log2 fold change [2]	log2 fold change [3]	log2 fold change [4]	log2 fold change [5]	log2 fold change [6]
BTAF1 (UniProt O14981)	inactive: 0.013	inactive: 0	inactive: -0.005	inactive: 0.04	inactive: -0.02	
BIN3 (UniProt Q9NQY0)	inactive: -0.017	inactive: -0.101		inactive: 0.084	inactive: 0	
BEND3 (UniProt Q5T5X7)			inactive: 0.074	inactive: 0.02	inactive: -0.043	
BEX4 (UniProt Q9NWD9)				inactive: -0.085		
BPIFA2 (UniProt Q96DR5)	inactive: 0.189	inactive: -0.176			inactive: -0.024	
BCAS1 isoform 2 (UniProt O75363)	inactive: 0.109	inactive: -0.038			inactive: -0.072	
BRWD1 (UniProt Q9NSI6)				inactive: 0.097		
BMT2 (UniProt Q1RMZ1)					inactive: 0.123	
BTBD2 (UniProt Q9BX70)					inactive: -0.068	
BAHD1 (UniProt Q8TBE0)	inactive: 0.271	inactive: 0.065		inactive: -0.068	inactive: 0.099	
BBX (UniProt Q8WY36)				inactive: 0.045		
BAZ2A (UniProt Q9UIF9)					inactive: -0.012	
BNIP3 (UniProt Q12983)	inactive: 0.034	inactive: -0.053		inactive: -0.023	inactive: -0.074	
BRIP1 (UniProt Q9BX63)			inactive: -0.042	inactive: 0.075	inactive: -0.025	

Already shown: entries from further up.
Target | log2 fold change [1] | log2 fold change [2] | log2 fold change [3] | log2 fold change [4] | log2 fold change [5] | log2 fold change [6]
BBX (UniProt Q8WY36) |  |  |  | inactive: 0.045 |  | 
BAZ2A (UniProt Q9UIF9) |  |  |  |  | inactive: -0.012 | 

(continued)

Target | log2 fold change [1] | log2 fold change [2] | log2 fold change [3] | log2 fold change [4] | log2 fold change [5] | log2 fold change [6]
BRAF, A0A2R8Y8E0 |  |  | inactive: -0.13 |  |  | 
BAIAP2 isoform 6 (UniProt Q9UQB8) |  |  |  |  | inactive: -0.001 | 
BBS4 isoform 2 (UniProt Q96RK4) |  |  |  | inactive: 0.034 | inactive: -0.005 | 
BPIFA1 (UniProt Q9NP55) |  |  | inactive: 0.684 | inactive: -0.078 | inactive: 0.055 | 
BBS7 (UniProt Q8IWZ6) |  |  | inactive: 0.035 | inactive: -0.358 | inactive: 0.181 | 
BAK1 (UniProt Q16611) |  |  | inactive: -0.127 | inactive: -0.271 | inactive: 0.034 | 
BCORL1 isoform 3 (UniProt Q5H9F3) |  |  | inactive: 0.029 | inactive: 0 | inactive: -0.382 | inactive: -0.141
BSCL2 isoform 4 (UniProt Q96G97) |  |  |  |  | inactive: 0.093 | 
BRD7 isoform 2 (UniProt Q9NPI1) | inactive: -0.012 | inactive: 0.025 |  | inactive: -0.015 | inactive: 0.125 | 
BRMS1 (UniProt Q9HCU9) |  |  | inactive: -0.085 | inactive: -0.018 |  | 
BPIFB1 (UniProt Q8TDL5) |  |  |  |  | inactive: -0.255 | 
BNIP2 (UniProt H7C096) | inactive: 0.013 | inactive: 0.013 |  |  | inactive: -0.05 | 
BIRC6, A0A3B3IUB9 |  |  | inactive: 0 | inactive: 0.225 | inactive: -0.078 | 
BEX2 isoform 2 (UniProt Q9BXY8) |  |  | inactive: -0.066 |  | inactive: -0.299 | 
BOD1 (UniProt Q96IK1) |  |  |  | inactive: 0.138 | inactive: 0.084 | 
B4GALT7 (UniProt Q9UBV7) |  |  | inactive: 0.377 |  | inactive: 0.135 | 
BCL7C (UniProt Q8WUZ0) | inactive: 0.124 | inactive: 0.038 |  | inactive: -0.004 | inactive: -0.035 | 
BICRA (UniProt Q9NZM4) | inactive: -0.077 | inactive: 0.208 |  | inactive: -0.122 | inactive: -0.142 | 
BAP18 isoform 3 (UniProt Q8IXM2) |  |  | inactive: -0.064 |  | inactive: 0.004 | 
BRD9 (UniProt Q9H8M2) |  |  |  |  | inactive: -0.051 | 
BAG6 (UniProt F6WML8) |  |  | inactive: -0.04 |  |  | 
